Measurements reported in PubChem BioAssay AID1224826 (NIAID, 2016)
Aim: 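Regulators of Tlr4 signalling leading to Tnf-alpha expression in macrophages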 (primary screen). Cells: RAW264.7 G9 macrophages from mouse bearing reporters for p65 (GFP) and the Tnf promoter (mCherry). Reagents: siRNA pool against mouse genes, 100 nM. Duration: 16 h of LPS stimulation, after 2 days of siRNA transfection. Challenge: bacterial lipopolysaccharide (Salmonella minnesota R595), 10 ng/ml. Read-out: 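Imaged Tnf reporter mCherry in nuclei, minus background, normalised per plate to the median and expressed as robust z-scores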. Reading the numbers: Tnf reporter robust z-score: higher = stronger Tnf promoter reporter signal after LPS. Active means: 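Called active when robust z-score is at most -1.3, matching the median of the Tlr4 knock-down control, or over 3; control wells and wells with under 50 cells never active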. Meaning of the calls: active = Tnf reporter clearly lowered or raised; inactive = no clear change in Tnf reporter.
Here is one part, drawn at random, of about 17,000 reagents. Over the whole deposit, about 1,110 (6.6%) got an active call. 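Active means lowered or raised reporter signal; replicate intensities are raw and not normalised per plate.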 Reagents against one gene are numbered here. Further read-outs or replicates are left out here.

What is on record for Timeless?
Tnf reporter robust z-score: -1.16; fewer than 50 cells in well: enough cells in well; Call: inactive

With Jagn1, what does the deposit list?
Tnf reporter robust z-score: 0; fewer than 50 cells in well: enough cells in well; Call: inactive

What did the screen give for Cherp?
Tnf reporter robust z-score: -0.55; fewer than 50 cells in well: enough cells in well; Call: inactive

With Sf3b5, what does the deposit list?
fewer than 50 cells in well: fewer than 50 cells per well; well left out of calls; Call: inactive

Which result is listed for Mtcp1?
Tnf reporter robust z-score: -0.41; fewer than 50 cells in well: enough cells in well; Call: inactive

For Atpsckmt, what was measured?
Tnf reporter robust z-score: 0.31; fewer than 50 cells in well: enough cells in well; Call: inactive

What did the screen give for Tsks?
Tnf reporter robust z-score: 1.13; fewer than 50 cells in well: enough cells in well; Call: inactive

For Rgmb, what was measured?
Tnf reporter robust z-score: 0.2; fewer than 50 cells in well: enough cells in well; Call: inactive

With Tspoap1, what was measured?
Tnf reporter robust z-score: -0.17; fewer than 50 cells in well: enough cells in well; Call: inactive

What did the screen give for Sybu #1?
fewer than 50 cells in well: fewer than 50 cells per well; well left out of calls; Call: inactive

What is on record for Sybu #2?
Tnf reporter robust z-score: 0.14; fewer than 50 cells in well: enough cells in well; Call: inactive

How did the screen score Fan1?
Tnf reporter robust z-score: 1.89; fewer than 50 cells in well: enough cells in well; Call: inactive

3 entries from above in another layout.
{"gene symbol": "Tspoap1", "reagent": 1, "Tnf reporter robust z-score": -0.17, "fewer than 50 cells in well": "enough cells in well", "Call": "inactive"}
{"gene symbol": "Sybu", "reagent": 1, "fewer than 50 cells in well": "fewer than 50 cells per well; well left out of calls", "Call": "inactive"}
{"gene symbol": "Sybu", "reagent": 2, "Tnf reporter robust z-score": 0.14, "fewer than 50 cells in well": "enough cells in well", "Call": "inactive"}

The list goes on.
With Wdr26, what does the deposit list?
Tnf reporter robust z-score: -0.86; fewer than 50 cells in well: enough cells in well; Call: inactive

With Bnc1, what was measured?
Tnf reporter robust z-score: -0.45; fewer than 50 cells in well: enough cells in well; Call: inactive

What is on record for Xlr3c?
Tnf reporter robust z-score: 1.49; fewer than 50 cells in well: enough cells in well; Call: inactive

With Tex9, what does the deposit list?
Tnf reporter robust z-score: 0.57; fewer than 50 cells in well: enough cells in well; Call: inactive

Which result is listed for Rest?
Tnf reporter robust z-score: 0.48; fewer than 50 cells in well: enough cells in well; Call: inactive

With Or10j2, what does the deposit list?
Tnf reporter robust z-score: 1.45; fewer than 50 cells in well: enough cells in well; Call: inactive

What did the screen give for Drd3?
Tnf reporter robust z-score: -0.83; fewer than 50 cells in well: enough cells in well; Call: inactive

With Slc38a11, what was measured?
Tnf reporter robust z-score: -0.06; fewer than 50 cells in well: enough cells in well; Call: inactive

What did the screen give for Stim1?
Tnf reporter robust z-score: -0.73; fewer than 50 cells in well: enough cells in well; Call: inactive
